Measurements published in US20210052532A1, “COMPOSITIONS AND METHODS FOR TREATMENT OF INSULIN RESISTANCE” (TEMPLE UNIVERSITY - OF THE COMMONWEALTH SYSTEM OF HIGHER …, priority 2018, published 2021).
At least one structure is not confirmed: it was looked up by name or label, or the drawing left a doubt.

Experiment: Glucose tolerance tests
Assay type: in vivo
Conditions: compared with pioglitazone

## CCc1ccc(CCOc2ccc(CC3SC(=O)NC3=O)cc2)nc1 (stereo not shown) [pioglitazone]
  impaired glucose tolerance as measured by glucose tolerance tests: only moderate glucose tolerance-improving effect
